The source of these data is the supplement of paper PMC10849652.

Amino acid sequences for entries named in this document (tags omitted). A change or cut given only in a name is not applied to a line headed by its entry.
UniProt O00244: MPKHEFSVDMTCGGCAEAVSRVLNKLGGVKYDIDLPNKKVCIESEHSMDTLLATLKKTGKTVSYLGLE
UniProt Q16864, whole entry, looked up: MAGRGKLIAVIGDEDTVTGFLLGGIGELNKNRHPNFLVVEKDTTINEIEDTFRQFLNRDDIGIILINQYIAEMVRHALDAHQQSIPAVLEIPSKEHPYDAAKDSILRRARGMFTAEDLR
UniProt P36543, whole entry, looked up: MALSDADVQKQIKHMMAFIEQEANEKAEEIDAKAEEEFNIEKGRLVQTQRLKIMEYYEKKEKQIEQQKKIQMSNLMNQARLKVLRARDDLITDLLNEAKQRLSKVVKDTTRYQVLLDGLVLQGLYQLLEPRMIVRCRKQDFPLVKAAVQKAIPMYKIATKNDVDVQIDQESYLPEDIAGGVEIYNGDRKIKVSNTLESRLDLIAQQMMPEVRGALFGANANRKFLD
UniProt O43681: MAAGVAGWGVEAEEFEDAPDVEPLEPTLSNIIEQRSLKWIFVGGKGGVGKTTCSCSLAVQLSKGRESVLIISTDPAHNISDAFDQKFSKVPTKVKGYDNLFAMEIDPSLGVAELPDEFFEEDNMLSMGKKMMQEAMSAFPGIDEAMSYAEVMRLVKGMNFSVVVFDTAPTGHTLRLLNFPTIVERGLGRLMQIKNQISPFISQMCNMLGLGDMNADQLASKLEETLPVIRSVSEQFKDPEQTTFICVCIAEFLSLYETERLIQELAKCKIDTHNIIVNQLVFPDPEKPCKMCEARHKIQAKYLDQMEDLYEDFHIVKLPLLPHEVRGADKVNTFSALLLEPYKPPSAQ
UniProt Q9Y2G3: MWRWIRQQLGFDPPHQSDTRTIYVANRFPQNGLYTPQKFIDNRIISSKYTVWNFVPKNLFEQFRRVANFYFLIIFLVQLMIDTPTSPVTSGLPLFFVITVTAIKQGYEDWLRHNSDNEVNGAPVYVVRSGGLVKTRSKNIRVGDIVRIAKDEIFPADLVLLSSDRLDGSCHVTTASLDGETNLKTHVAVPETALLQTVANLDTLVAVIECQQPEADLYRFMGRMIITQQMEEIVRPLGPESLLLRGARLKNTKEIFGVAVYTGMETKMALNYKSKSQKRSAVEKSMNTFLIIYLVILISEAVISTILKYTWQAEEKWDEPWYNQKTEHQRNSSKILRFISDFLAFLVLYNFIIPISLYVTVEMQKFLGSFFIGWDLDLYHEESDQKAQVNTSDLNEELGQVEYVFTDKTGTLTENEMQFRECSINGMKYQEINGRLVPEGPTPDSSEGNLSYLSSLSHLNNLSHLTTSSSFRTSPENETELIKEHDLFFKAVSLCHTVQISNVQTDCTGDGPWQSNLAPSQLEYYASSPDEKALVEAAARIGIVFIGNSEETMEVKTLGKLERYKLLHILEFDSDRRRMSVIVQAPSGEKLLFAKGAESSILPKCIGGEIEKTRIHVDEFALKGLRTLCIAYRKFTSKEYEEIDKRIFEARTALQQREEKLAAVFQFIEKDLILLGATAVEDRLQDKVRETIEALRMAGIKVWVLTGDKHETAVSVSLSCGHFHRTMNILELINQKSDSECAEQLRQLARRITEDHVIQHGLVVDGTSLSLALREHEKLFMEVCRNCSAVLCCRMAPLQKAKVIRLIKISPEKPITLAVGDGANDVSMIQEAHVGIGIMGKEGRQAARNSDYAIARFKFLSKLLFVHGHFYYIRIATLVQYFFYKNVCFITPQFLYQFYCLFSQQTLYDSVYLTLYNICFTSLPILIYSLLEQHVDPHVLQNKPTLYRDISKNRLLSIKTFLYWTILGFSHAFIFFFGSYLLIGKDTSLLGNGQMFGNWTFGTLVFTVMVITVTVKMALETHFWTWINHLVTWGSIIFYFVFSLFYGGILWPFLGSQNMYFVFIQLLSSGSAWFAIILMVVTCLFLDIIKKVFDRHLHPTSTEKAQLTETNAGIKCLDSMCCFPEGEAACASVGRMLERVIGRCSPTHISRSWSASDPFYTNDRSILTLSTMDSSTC
UniProt Q13535: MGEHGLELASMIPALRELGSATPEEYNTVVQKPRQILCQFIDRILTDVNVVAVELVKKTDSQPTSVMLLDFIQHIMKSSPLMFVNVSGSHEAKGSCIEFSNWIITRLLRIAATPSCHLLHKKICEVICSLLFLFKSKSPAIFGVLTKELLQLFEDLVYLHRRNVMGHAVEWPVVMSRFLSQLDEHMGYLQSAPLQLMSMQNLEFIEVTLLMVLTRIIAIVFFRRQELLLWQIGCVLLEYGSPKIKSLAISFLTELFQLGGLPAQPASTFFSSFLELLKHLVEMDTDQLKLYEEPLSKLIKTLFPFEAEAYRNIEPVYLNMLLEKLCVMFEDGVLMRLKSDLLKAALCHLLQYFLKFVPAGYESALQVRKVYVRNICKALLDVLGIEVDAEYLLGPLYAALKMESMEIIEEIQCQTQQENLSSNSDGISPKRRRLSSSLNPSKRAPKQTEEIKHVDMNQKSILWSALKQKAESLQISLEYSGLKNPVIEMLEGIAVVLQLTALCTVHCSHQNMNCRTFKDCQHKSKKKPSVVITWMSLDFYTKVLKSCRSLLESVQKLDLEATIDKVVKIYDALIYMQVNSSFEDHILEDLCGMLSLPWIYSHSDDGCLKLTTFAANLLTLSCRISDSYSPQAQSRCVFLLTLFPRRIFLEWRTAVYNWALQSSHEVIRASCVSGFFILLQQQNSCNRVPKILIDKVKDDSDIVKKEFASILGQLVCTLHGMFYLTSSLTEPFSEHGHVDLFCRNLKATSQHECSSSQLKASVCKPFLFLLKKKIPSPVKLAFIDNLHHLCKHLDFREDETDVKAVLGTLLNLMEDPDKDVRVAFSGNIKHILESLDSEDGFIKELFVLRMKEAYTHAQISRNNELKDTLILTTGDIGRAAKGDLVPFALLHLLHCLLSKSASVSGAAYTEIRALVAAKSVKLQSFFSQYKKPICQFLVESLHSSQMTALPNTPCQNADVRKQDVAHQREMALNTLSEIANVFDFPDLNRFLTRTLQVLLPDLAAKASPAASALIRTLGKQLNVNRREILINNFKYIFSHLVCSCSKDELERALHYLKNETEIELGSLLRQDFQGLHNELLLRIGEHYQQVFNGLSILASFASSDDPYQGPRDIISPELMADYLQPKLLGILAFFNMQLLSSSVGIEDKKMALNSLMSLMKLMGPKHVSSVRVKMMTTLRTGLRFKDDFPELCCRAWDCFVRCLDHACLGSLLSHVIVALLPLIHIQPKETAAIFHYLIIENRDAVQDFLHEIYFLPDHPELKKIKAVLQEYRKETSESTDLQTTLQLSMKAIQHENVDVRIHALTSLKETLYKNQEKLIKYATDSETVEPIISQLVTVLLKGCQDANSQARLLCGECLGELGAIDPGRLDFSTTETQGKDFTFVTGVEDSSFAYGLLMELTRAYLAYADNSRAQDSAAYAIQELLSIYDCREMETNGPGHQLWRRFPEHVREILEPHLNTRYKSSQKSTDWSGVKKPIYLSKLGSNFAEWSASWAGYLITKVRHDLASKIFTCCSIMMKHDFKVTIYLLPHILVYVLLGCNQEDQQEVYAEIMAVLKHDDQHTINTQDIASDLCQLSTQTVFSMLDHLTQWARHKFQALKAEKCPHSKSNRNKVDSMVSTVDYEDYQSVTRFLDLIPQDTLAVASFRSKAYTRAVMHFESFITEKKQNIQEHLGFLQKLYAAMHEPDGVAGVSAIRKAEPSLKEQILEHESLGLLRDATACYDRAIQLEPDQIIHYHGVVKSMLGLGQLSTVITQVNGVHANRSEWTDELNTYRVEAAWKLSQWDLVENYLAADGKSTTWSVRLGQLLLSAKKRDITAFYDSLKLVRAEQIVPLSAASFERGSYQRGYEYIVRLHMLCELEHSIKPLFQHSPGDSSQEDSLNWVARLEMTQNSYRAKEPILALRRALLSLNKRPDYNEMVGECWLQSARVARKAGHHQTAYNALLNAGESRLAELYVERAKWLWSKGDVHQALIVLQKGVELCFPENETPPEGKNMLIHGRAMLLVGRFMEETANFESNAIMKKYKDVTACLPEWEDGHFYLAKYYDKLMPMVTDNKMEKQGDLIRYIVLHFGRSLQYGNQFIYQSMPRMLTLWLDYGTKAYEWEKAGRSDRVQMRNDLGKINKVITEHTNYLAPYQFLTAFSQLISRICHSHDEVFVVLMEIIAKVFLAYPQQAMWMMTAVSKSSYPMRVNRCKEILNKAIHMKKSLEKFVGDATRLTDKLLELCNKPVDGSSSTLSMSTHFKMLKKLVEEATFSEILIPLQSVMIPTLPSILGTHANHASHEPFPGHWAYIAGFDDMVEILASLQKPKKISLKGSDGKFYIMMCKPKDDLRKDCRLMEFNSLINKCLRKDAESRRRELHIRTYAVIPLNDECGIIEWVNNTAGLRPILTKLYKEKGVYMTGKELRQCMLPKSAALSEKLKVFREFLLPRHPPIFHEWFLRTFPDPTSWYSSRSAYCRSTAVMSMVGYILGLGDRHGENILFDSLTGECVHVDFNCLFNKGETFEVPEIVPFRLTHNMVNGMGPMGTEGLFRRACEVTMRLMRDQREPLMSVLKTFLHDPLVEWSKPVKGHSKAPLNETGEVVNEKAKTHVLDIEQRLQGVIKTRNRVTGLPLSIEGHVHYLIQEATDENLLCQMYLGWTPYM
UniProt P18846: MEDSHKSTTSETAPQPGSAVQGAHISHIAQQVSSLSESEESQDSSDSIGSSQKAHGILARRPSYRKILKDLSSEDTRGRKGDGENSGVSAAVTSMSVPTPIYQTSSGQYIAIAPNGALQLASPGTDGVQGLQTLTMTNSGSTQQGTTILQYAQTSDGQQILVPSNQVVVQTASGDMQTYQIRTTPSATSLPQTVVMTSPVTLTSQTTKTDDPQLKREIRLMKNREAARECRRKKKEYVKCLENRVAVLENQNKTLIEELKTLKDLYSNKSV
UniProt Q9Y6H3: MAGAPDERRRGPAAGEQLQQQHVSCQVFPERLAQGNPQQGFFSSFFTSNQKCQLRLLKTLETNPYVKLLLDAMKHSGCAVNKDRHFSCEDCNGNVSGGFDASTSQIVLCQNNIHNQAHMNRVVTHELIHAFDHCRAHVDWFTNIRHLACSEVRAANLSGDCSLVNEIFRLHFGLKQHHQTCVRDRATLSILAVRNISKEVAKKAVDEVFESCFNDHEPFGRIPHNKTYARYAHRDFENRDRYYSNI
UniProt Q9Y487, whole entry, looked up: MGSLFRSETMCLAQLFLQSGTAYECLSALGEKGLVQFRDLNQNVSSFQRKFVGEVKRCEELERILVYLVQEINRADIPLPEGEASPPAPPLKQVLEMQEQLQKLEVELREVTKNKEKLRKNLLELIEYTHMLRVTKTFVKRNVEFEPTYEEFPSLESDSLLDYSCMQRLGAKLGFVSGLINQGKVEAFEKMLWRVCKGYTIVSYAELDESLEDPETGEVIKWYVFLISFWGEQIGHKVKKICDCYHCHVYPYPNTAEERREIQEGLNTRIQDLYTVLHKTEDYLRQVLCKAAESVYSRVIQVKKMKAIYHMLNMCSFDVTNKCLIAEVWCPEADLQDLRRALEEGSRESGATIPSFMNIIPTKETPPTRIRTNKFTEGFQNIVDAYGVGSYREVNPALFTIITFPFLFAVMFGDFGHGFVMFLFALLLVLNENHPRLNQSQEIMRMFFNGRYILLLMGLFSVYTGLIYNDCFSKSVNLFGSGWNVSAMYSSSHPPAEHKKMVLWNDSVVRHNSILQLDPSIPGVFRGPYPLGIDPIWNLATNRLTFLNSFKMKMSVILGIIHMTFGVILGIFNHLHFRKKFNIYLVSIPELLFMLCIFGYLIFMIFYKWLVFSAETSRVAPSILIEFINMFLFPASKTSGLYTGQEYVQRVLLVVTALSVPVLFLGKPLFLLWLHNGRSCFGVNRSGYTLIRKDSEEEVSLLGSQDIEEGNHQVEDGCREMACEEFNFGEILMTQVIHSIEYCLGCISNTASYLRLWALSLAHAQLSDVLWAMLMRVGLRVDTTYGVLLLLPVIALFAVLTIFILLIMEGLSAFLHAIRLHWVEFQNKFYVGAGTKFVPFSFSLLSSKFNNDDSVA
UniProt Q9NWX5: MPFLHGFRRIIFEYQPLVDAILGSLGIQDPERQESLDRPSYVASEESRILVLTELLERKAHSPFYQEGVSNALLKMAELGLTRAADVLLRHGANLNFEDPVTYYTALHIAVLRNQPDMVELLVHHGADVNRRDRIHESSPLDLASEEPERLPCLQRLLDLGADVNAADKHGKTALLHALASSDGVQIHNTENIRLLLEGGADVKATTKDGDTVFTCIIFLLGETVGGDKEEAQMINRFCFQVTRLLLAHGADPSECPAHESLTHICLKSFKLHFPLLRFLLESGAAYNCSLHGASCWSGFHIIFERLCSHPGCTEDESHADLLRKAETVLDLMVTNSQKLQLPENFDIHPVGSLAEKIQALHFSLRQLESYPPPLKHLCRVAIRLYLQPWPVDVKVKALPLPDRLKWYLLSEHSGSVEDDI
UniProt Q9UII2: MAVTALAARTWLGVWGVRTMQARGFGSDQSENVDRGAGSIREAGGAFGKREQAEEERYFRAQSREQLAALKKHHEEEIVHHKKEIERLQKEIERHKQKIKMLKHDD
UniProt P56378: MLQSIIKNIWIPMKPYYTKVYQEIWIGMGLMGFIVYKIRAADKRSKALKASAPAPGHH

The other results are listed elsewhere or left out.

Compound in one test: Cn1cncc1[C@@](N)(c1ccc(Cl)cc1)c1ccc2c(c1)c(-c1cccc(Cl)c1)cc(=O)n2C [tipifarnib]
Nature of the test: log2 fold change, soluble protein after heating vs DMSO (PISA); higher = thermal stabilisation; K562 lysate, 10 uM; active = over 0.2 and 3.5 SD of the protein, either way, in both replicates (recomputed). The gist of the method: (§1)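 K562 pellets were dounce-homogenised in PBS pH 7.4 containing 1 mM MgCl2, and the crude extract, at 1 mg/mL protein, was exposed to 10 μM compound for 30 min. Aliquots were heated for 3 min across 48°C-58°C, pooled, brought to 0.5% NP-40 at 4°C and spun at 21,000xg for 90 min, with the supernatant taken as soluble protein. TMTpro 16plex LC-MS/MS with equalised channel sums quantified that protein. Values are log-two fold changes in thermal stability relative to solvent controls, taken from duplicates.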
On to ATOX1 (UniProt O00244), for which the log2 fold change was inactive: 0.168.
Same read-out and setting: as for ATP13A3 (UniProt Q9H7F0), the figure is inactive: 0.052.
On to ATP6V1F isoform 2 (UniProt Q16864), for which the log2 fold change is inactive: 0.023.
On the same count and under the same terms, as for ATP6V1E1 (UniProt P36543), the figure is inactive: -0.021; as for ASNA1 (UniProt O43681), inactive: 0.022; as for ATP11B (UniProt Q9Y2G3), inactive: 0.012.
For ATR (UniProt Q13535), the log2 fold change is inactive: -0.032.
Same read-out and setting: as for ATF1 (UniProt P18846), the figure is inactive: -0.082.
As to ATP23 (UniProt Q9Y6H3), the log2 fold change was inactive: 0.002.
The same measure, in the same setting: as for ATP6V0A2 (UniProt Q9Y487), the figure is inactive: -0.033; as for ASB6 (UniProt Q9NWX5), inactive: 0.041.

Compound in the next test: NC(=O)Nc1cc(-c2cccc(F)c2)sc1C(=O)N[C@H]1CCCNC1
The test is described as above. The gist of the method: as §1
With ASF1A (UniProt Q9Y294), the log2 fold change is inactive: 0.011.
For ATP2B1 isoform 1 (UniProt P20020), the log2 fold change is inactive: 0.008.
Same read-out and setting: as for ASF1B (UniProt Q9NVP2), the figure is inactive: 0.106; as for ATP2A3 isoform 2 (UniProt Q93084), inactive: 0.031.
The same measure, in the same setting: as for ATL2 (UniProt Q8NHH9), the figure is inactive: -0.039.
Still for that read-out and setting: as for ASCC2 (UniProt Q9H1I8), the figure is inactive: 0.035; as for ASNS (UniProt P08243), inactive: 0.027.
Consider ATP9B (UniProt O43861), for which the log2 fold change was inactive: -0.021.
Same read-out and setting: as for ASS1 (UniProt P00966), the figure is inactive: 0.024.
Still for that read-out and setting: as for ATP5F1D (UniProt P30049), the figure is inactive: -0.028.
Same read-out and setting: as for ATG4B (UniProt Q9Y4P1), the figure is inactive: 0.024; as for ATG2A isoform 3 (UniProt Q2TAZ0), inactive: 0.017.
On to ATP5IF1 (UniProt Q9UII2), for which the log2 fold change is inactive: -0.071.
As for ATP6V1B1 (UniProt P15313), the log2 fold change is inactive: 0.01.
The same measure, in the same setting: as for ATP6V1A (UniProt P38606), the figure is inactive: -0.019; as for ATE1 isoform 2 (UniProt O95260), inactive: 0.034; as for ATP5MF-PTCD1 (UniProt G3V325), inactive: 0.013.
For ATP5MPL (UniProt P56378), the log2 fold change is inactive: -0.02.
The same measure, in the same setting: as for ATP5PB (UniProt P24539), the figure is inactive: -0.042.
Same read-out and setting: as for AUP1 (UniProt Q9Y679), the figure is inactive: -0.024.
Regarding ATXN10 (UniProt Q9UBB4), the log2 fold change was inactive: -0.002.
On the same count and under the same terms, as for ASH2L (UniProt Q9UBL3), the figure is inactive: -0.002; as for ATOX1 (UniProt O00244), inactive: 0.027.
On to ATP13A3 (UniProt Q9H7F0), for which the log2 fold change is inactive: 0.017.
As to ATP6V1F isoform 2 (UniProt Q16864), the log2 fold change is inactive: -0.018.
Still for that read-out and setting: as for ATP6V1E1 (UniProt P36543), the figure is inactive: 0.016; as for ASNA1 (UniProt O43681), inactive: -0.005; as for ATP11B (UniProt Q9Y2G3), inactive: 0.005.
Same read-out and setting: as for ATR (UniProt Q13535), the figure is inactive: 0.047; as for ATF1 (UniProt P18846), inactive: -0.013.
Consider ATP23 (UniProt Q9Y6H3), for which the log2 fold change was inactive: -0.011.
Turning to ATP6V0A2 (UniProt Q9Y487), the log2 fold change was inactive: -0.011.
On to ASB6 (UniProt Q9NWX5), for which the log2 fold change is inactive: -0.01.

Compound in another test: NC(=O)c1cnc(N[C@@H]2CCCC[C@@H]2N)nc1Nc1cccc(-n2nccn2)c1
Described as above. In short, it runs like this: as §1
With ASF1A (UniProt Q9Y294), the log2 fold change is inactive: 0.016.
Still for that read-out and setting: as for ATP2B1 isoform 1 (UniProt P20020), the figure is inactive: 0.016; as for ASF1B (UniProt Q9NVP2), inactive: 0.045.
Regarding ATP2A3 isoform 2 (UniProt Q93084), the log2 fold change is inactive: -0.007.
The same measure, in the same setting: as for ATL2 (UniProt Q8NHH9), the figure is inactive: 0; as for ASCC2 (UniProt Q9H1I8), inactive: 0.038; as for ASNS (UniProt P08243), inactive: -0.01.
The same measure, in the same setting: as for ATP9B (UniProt O43861), the figure is inactive: 0.107.
Still for that read-out and setting: as for ASS1 (UniProt P00966), the figure is inactive: 0.002; as for ATP5F1D (UniProt P30049), inactive: -0.04.
With ATG4B (UniProt Q9Y4P1), the log2 fold change was inactive: -0.05.
Same read-out and setting: as for ATG2A isoform 3 (UniProt Q2TAZ0), the figure is inactive: 0.022; as for ATP5IF1 (UniProt Q9UII2), inactive: 0.002.
Take ATP6V1B1 (UniProt P15313): the log2 fold change was inactive: 0.019.
On the same count and under the same terms, as for ATP6V1A (UniProt P38606), the figure is inactive: 0.001.
ATE1 isoform 2 (UniProt O95260): the log2 fold change is inactive: -0.002.
Turning to ATP5MF-PTCD1 (UniProt G3V325), the log2 fold change was inactive: -0.042.
Same read-out and setting: as for ATP5MPL (UniProt P56378), the figure is inactive: -0.027; as for ATP5PB (UniProt P24539), inactive: 0.004; as for AUP1 (UniProt Q9Y679), inactive: -0.07.
Same read-out and setting: as for ATXN10 (UniProt Q9UBB4), the figure is inactive: 0.01; as for ASH2L (UniProt Q9UBL3), inactive: -0.002; as for ATOX1 (UniProt O00244), inactive: -0.072.
Same read-out and setting: as for ATP13A3 (UniProt Q9H7F0), the figure is inactive: 0.006.
Regarding ATP6V1F isoform 2 (UniProt Q16864), the log2 fold change is inactive: -0.061.
The same measure, in the same setting: as for ATP6V1E1 (UniProt P36543), the figure is inactive: -0.007; as for ASNA1 (UniProt O43681), inactive: -0.025; as for ATP11B (UniProt Q9Y2G3), inactive: -0.01.
As for ATR (UniProt Q13535), the log2 fold change is inactive: 0.014.
The same measure, in the same setting: as for ATF1 (UniProt P18846), the figure is inactive: 0.032.
Take ATP23 (UniProt Q9Y6H3): the log2 fold change was inactive: 0.03.
Consider ATP6V0A2 (UniProt Q9Y487), for which the log2 fold change was inactive: 0.001.
On the same count and under the same terms, as for ASB6 (UniProt Q9NWX5), the figure is inactive: 0.016.
